# Reference: PubChem BioAssay AID651640 (Broad Institute, 2012)
# Among all 350,000 compounds or so, about 6,000 (1.7%) were called active. This list was built around the results that the source calls inconclusive (neither active nor inactive); the mix of calls is not that of the screen. No stated cut-off is given here; in the data, active means CPE inhibition above about 20% (passing the limit was not always enough); inconclusive means no clear call, values can overlap the other calls; tested in BHK-21 cells.
# Assay: protection of cells from dengue 2 killing – plate reader, single concentration, primary screen (AID 651640);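 further: 0% = median of neutral control wells and 100% = median of positive control wells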
# Conditions: DENV2-infected cells, cytopathic effect rescue, at 9.99 µM, stronger effect = higher value
row,Compound,CPE inhibition
1,O=C(C[C@@H]1C=C[C@@H](NC(=O)C2CCOCC2)[C@H](CO)O1)Nc1ccc(-c2ccccc2)cc1,inconclusive: 21%
2,Cc1cccc(OCC(=O)OCC(=O)N2CCN(C(=O)c3ccco3)CC2)c1C,inactive: -3.94%
3,COc1ccc(NC(=O)N(C)C[C@@H]2OCCCC[C@@H](C)Oc3ccc(NS(=O)(=O)c4c(C)noc4C)cc3C(=O)N([C@H](C)CO)C[C@H]2C)cc1,inconclusive: 62.6%
4,CC(C)NC(=O)N(C)C[C@H]1Oc2ccc(NC(=O)c3ccncc3)cc2CC(=O)N([C@@H](C)CO)C[C@@H]1C,inconclusive: 51.1%
5,Cc1ccc(S(=O)(=O)Nc2ccc3c(c2)C(=O)N([C@@H](C)CO)C[C@H](C)[C@H](CN(C)C(=O)Cc2ccccc2)OCCCC[C@H](C)O3)cc1,inconclusive: 47.2%
6,COc1ccc(S(=O)(=O)NC2CCCC2)cc1Cl,inconclusive: 25.7%
7,COc1ccccc1CN1[C@@H](CO)[C@@H]2c3ccccc3N(C(=O)c3ccncc3)C[C@@H]21,inconclusive: 34.1%
8,CC=Cc1ccc2n(c1=O)C[C@@H]1[C@@H](CO)[C@H](C(=O)NCC3CC3)[C@H]2N1C(=O)c1ccccc1 (mixture of isomers),inconclusive: 42%
9,Cc1cccc(-c2cccc3nccn23)c1,inconclusive: 72.8%
10,C[C@@H]1CN([C@@H](C)CO)C(=O)Cc2cc(NC(=O)CCCCCC(=O)Nc3ccccc3N)ccc2O[C@H]1CN(C)CC1CC1,active: 21.2%
11,Nc1ccc2c3c(cccc13)C(=O)N(c1ccccc1)C2=O,inconclusive: 30.6%
12,COCc1ccc(CN2CCCC(C(=O)Nc3ccc(-c4cscn4)cc3)C2)o1 (stereo unspecified),inconclusive: 22.1%
13,Cc1ccccc1SCC(=O)Nc1cc(S(=O)(=O)N2CCOCC2)ccc1N1CCOCC1,inconclusive: 26.3%
14,Cc1csc(N/N=C/c2ccccc2F)n1,inconclusive: 68.5%
15,C/C=C/c1ccc([C@H]2[C@H](CO)N(C(C)=O)[C@H]2CN(C)S(C)(=O)=O)cc1,inconclusive: 42%
16,CC(=O)N/C(=C\c1ccccc1)C(=O)OC(C)C(=O)c1ccccc1 (stereo unspecified),inconclusive: 45.3%
17,CCC(C)[C@H]1COCCS(=O)(=O)N1Cc1ccc(Br)cc1 (stereo partly specified),active: 100%
18,C/C(=N\NC(=O)c1cccc(S(=O)(=O)N2CCCC2)c1)c1ccncc1,inconclusive: 24.6%
19,COCCNC(=O)CCC1CCN(C/C=C/c2ccccc2OC)CC1,active: 29%
20,CCOc1cc(C2C3=C(CCCC3=O)OC3=C2C(=O)CCC3)cc([N+](=O)[O-])c1O,inactive: -3.89%
21,C[C@H](CO)N1C[C@H](C)[C@@H](CN(C)CC2CC2)Oc2ccc(NC(=O)CCCN(C)C)cc2C1=O,inactive: -8.32%
22,C[C@@H]1CCCCO[C@H](CN(C)S(=O)(=O)c2ccccc2)[C@@H](C)CN([C@@H](C)CO)C(=O)c2cc(NS(=O)(=O)c3ccc(F)cc3)ccc2O1,active: 25.3%
23,C[C@@H]1CCCCO[C@H](CN(C)C(=O)Nc2ccccc2)[C@H](C)CN([C@@H](C)CO)C(=O)c2cc(NS(=O)(=O)c3ccccc3)ccc2O1,inconclusive: 42.2%

# Quoted from the results shown (2 entries):
row,Compound,CPE inhibition
17,CCC(C)[C@H]1COCCS(=O)(=O)N1Cc1ccc(Br)cc1 (stereo partly specified),active: 100%
18,C/C(=N\NC(=O)c1cccc(S(=O)(=O)N2CCCC2)c1)c1ccncc1,inconclusive: 24.6%

# Later entries

row,Compound,CPE inhibition
1,OC(c1ccc(F)c(F)c1)c1nc(-c2cccc(C(F)(F)F)c2)cs1 (stereo unspecified),inconclusive: 57.9%
2,CN(C)S(=O)(=O)c1cccc(C(=O)Nc2ccc(S(=O)(=O)N3CCCC3)cc2)c1,inactive: -1.78%
3,O=C(c1cccc(F)c1)N1CCCCN2[C@H](CO)[C@@H](c3ccc(-c4ccncc4)cc3)[C@H]2C1,inactive: -3.81%
4,O=C(NNC(=O)c1ccccc1F)c1ccc(-c2ccccc2Cl)o1,active: 21%
5,CN1C(=O)C2(CCCCC2)C1c1ccccc1 (stereo unspecified),inconclusive: 21.8%
6,O=C(C[C@@H]1CC[C@@H]2[C@H](COC[C@H](O)CN2C(=O)c2cc(Cl)cc(Cl)c2)O1)N1CCc2ccccc2C1,inactive: 6.71%
7,Cn1c(NC(=O)c2cccc(C(F)(F)F)c2)cc(=O)n(C)c1=O,inconclusive: 24.8%
8,Cc1nnc2ccc(-c3ccc(NS(=O)(=O)c4ccccc4)cc3)nn12,inconclusive: 28.2%
9,Cc1ccc(C)c(CN2CCCN(C(=O)Cn3ncc4c3-c3ccccc3OC4)C2)c1,inconclusive: 40.2%
10,O=C(NCCS(=O)(=O)N1CCN(c2ccccc2F)CC1)c1cccc(Br)c1,inactive: 0.209%
11,CN1C(=O)c2cc(NS(C)(=O)=O)ccc2OC[C@@H]2O[C@H](CC(=O)NC3CCCCC3)CC[C@@H]21,inactive: -4.49%
12,C[C@H](NC(=O)C[C@@H]1CC[C@@H]2[C@@H](COc3ccc(NS(=O)(=O)c4ccc(Cl)cc4)cc3C(=O)N2C)O1)c1ccccc1,inactive: 3.8%
13,CCN1CCN(c2ccc(NC(=O)c3ccc(OC)c(S(=O)(=O)N4CCCC4)c3)cc2)CC1,inconclusive: 36.4%
14,CCS(=O)(=O)N[C@H]1CC[C@H](CC(=O)NCc2ccc(F)cc2)O[C@H]1CO,inconclusive: 45%
15,CCc1ccccc1Nc1nc(N)nc(COC(=O)C2CCN(C(=O)c3ccc(F)cc3)CC2)n1,inconclusive: 60.9%
16,COc1ccc(C(=O)COC(=O)CCNS(=O)(=O)c2ccccc2)c(OC)c1,inconclusive: 22.2%
17,CN(CC(=O)Nc1cccc(F)c1)C(=O)c1ccncc1,inconclusive: 20.5%
18,CN(C)c1ccc(C(CNC(=O)c2ccc(-c3ccccc3)cc2)N2CCOCC2)cc1 (stereo unspecified),inconclusive: 21%
19,CCCC#Cc1cnc2c(c1)C(=O)N([C@H](C)CO)C[C@@H](C)[C@H](CN(C)C(=O)Cc1ccncc1)O2,inactive: -13%
20,COC(=O)c1cc(C(=O)NNC(=O)c2ccc3c(c2)OCO3)cc([N+](=O)[O-])c1,inconclusive: 40.8%
21,Cc1cc(Cl)ccc1NC(=O)CN(C)C1=NS(=O)(=O)c2ccccc21,inconclusive: 29.6%
22,Cc1ccc(S(=O)(=O)N2CCC(C(=O)NCCCn3ccnc3)CC2)cc1,inconclusive: 50.8%
23,C[C@@H]1CN([C@H](C)CO)C(=O)CCCn2nncc2CO[C@@H]1CN(C)C(=O)Nc1ccc(N2CCN(C)CC2)cc1,inconclusive: 86.1%

# Quoted from the listing:
# CPE inhibition with `CCCC#Cc1cnc2c(c1)C(=O)N([C@H](C)CO)C[C@@H](C)[C@H](CN(C)C(=O)Cc1ccncc1)O2` reads inactive: -13%
# CPE inhibition with `Cn1c(NC(=O)c2cccc(C(F)(F)F)c2)cc(=O)n(C)c1=O` reads inconclusive: 24.8%
